Measurements taken from doi:10.1101/2025.05.20.655052.

Amino acid sequences for entries named in this document (tags omitted).
UniProt Q5XKP0: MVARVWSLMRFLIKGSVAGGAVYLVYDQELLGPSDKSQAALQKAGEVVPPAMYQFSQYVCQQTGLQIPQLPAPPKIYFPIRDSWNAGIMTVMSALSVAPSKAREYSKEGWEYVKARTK
UniProt Q5TGZ0: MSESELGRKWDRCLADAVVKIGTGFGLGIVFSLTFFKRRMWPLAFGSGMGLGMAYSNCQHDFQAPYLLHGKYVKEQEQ

T1: MIC26-APEX2-Myc (human) (UniProt Q9BUR5)
T1 sequence: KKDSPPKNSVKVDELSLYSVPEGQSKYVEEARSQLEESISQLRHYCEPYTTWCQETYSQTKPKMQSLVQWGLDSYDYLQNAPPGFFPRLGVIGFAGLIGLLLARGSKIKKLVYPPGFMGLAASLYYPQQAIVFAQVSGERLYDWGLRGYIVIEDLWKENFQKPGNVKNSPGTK

T2: MIC27-APEX2-Myc (human) (UniProt Q6UXV4)
T2 sequence: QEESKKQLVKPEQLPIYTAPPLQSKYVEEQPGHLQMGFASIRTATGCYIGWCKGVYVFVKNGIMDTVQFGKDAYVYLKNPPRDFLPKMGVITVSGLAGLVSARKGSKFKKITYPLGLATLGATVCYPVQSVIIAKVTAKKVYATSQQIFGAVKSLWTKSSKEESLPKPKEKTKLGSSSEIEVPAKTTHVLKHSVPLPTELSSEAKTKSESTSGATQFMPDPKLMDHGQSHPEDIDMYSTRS

B1: SAMM50 (protein, UniProt Q9Y512 1-469)
chain: MGTVHARSLEPLPSSGPDFGGLGEEAEFVEVEPEAKQEILENKDVVVQHVHFDGLGRTKDDIIICEIGDVFKAKNLIEVMRKSHEAREKLLRLGIFRQVDVLIDTCQGDDALPNGLDVTFEVTELRRLTGSYNTMVGNNEGSMVLGLKLPNLLGRAEKVTFQFSYGTKETSYGLSFFKPRPGNFERNFSVNLYKVTGQFPWSSLRETDRGMSAEYSFPIWKTSHTVKWEGVWRELGCLSRTASFAVRKESGHSLKSSLSHAMVIDSRNSSILPRRGALLKVNQELAGYTGGDVSFIKEDFELQLNKQLIFDSVFSASFWGGMLVPIGDKPSSIADRFYLGGPTSIRGFSMHSIGPQSEGDYLGGEAYWAGGLHLYTPLPFRPGQGGFGELFRTHFFLNAGNLCNLNYGEGPKAHIRKLAECIRWSYGAGIVLRLGNIARLELNYCVPMGVQTGDRICDGVQFGAGIRFL
B2: Aldehyde Dehydrogenase 1 Family Member L1 (enzyme, UniProt O75891 1-902)
chain: MKIAVIGQSLFGQEVYCHLRKEGHEVVGVFTVPDKDGKADPLGLEAEKDGVPVFKYSRWRAKGQALPDVVAKYQALGAELNVLPFCSQFIPMEIISAPRHGSIIYHPSLLPRHRGASAINWTLIHGDKKGGFSIFWADDGLDTGDLLLQKECEVLPDDTVSTLYNRFLFPEGIKGMVQAVRLIAEGKAPRLPQPEEGATYEGIQKKETAKINWDQPAEAIHNWIRGNDKVPGAWTEACEQKLTFFNSTLNTSGLVPEGDALPIPGAHRPGVVTKAGLILFGNDDKMLLVKNIQLEDGKMILASNFFKGAASSVLELTEAELVTAEAVRSVWQRILPKVLEVEDSTDFFKSGAASVDVVRLVEEVKELCDGLELENEDVYMASTFGDFIQLLVRKLRGDDEEGECSIDYVEMAVNKRTVRMPHQLFIGGEFVDAEGAKTSETINPTDGSVICQVSLAQVTDVDKAVAAAKDAFENGRWGKISARDRGRLMYRLADLMEQHQEELATIEALDAGAVYTLALKTHVGMSIQTFRYFAGWCDKIQGSTIPINQARPNRNLTLTRKEPVGVCGIIIPWNYPLMMLSWKTAACLAAGNTVVIKPAQVTPLTALKFAELTLKAGIPKGVVNVLPGSGSLVGQRLSDHPDVRKIGFTGSTEVGKHIMKSCAISNVKKVSLELGGKSPLIIFADCDLNKAVQMGMSSVFFNKGENCIAAGRLFVEDSIHDEFVRRVVEEVRKMKVGNPLDRDTDHGPQNHHAHLVKLMEYCQHGVKEGATLVCGGNQVPRPGFFFEPTVFTDVEDHMFIAKEESFGPVMIISRFADGDLDAVLSRANATEFGLASGVFTRDINKALYVSDKLQAGTVFVNTYNKTDVAAPFGGFKQSGFGKDLGEAALNEYLRVKTVTFEY
B3: Metaxin 1 (protein, UniProt Q13505 1-466)
chain: MLLGGPPRSPRSGTSPKGPWSSTGHVQFGKSPQTWPRRTRPRSPEPAAPSGVRGSTWTRRRDSPRRAGPTALSRYVGHLWMGRRPPSPEARGPVPRSSAASRARRSLASPGISPGPLTATIGGAVAGGGPRQGRAEAHKEVFPGQRVGKMAAPMELFCWSGGWGLPSVDLDSLAVLTYARFTGAPLKVHKISNPWQSPSGTLPALRTSHGEVISVPHKIITHLRKEKYNADYDLSARQGADTLAFMSLLEEKLLPVLVHTFWIDTKNYVEVTRKWYAEAMPFPLNFFLPGRMQRQYMERLQLLTGEHRPEDEEELEKELYREARECLTLLSQRLGSQKFFFGDAPASLDAFVFSYLALLLQAKLPSGKLQVHLRGLHNLCAYCTHILSLYFPWDGAEVPPQRQTPAGPETEEEPYRRRNQILSVLAGLAAMVGYALLSGIVSIQRATPARAPGTRTLGMAEEDEEE
B4: DNAJC11 (protein, UniProt Q9NVH1 1-559)
chain: MATALSEEELDNEDYYSLLNVRREASSEELKAAYRRLCMLYHPDKHRDPELKSQAERLFNLVHQAYEVLSDPQTRAIYDIYGKRGLEMEGWEVVERRRTPAEIREEFERLQREREERRLQQRTNPKGTISVGVDATDLFDRYDEEYEDVSGSSFPQIEINKMHISQSIEAPLTATDTAILSGSLSTQNGNGGGSINFALRRVTSAKGWGELEFGAGDLQGPLFGLKLFRNLTPRCFVTTNCALQFSSRGIRPGLTTVLARNLDKNTVGYLQWRWGIQSAMNTSIVRDTKTSHFTVALQLGIPHSFALISYQHKFQDDDQTRVKGSLKAGFFGTVVEYGAERKISRHSVLGAAVSVGVPQGVSLKVKLNRASQTYFFPIHLTDQLLPSAMFYATVGPLVVYFAMHRLIIKPYLRAQKEKELEKQRESAATDVLQKKQEAESAVRLMQESVRRIIEAEESRMGLIIVNAWYGKFVNDKSRKSEKVKVIDVTVPLQCLVKDSKLILTEASKAGLPGFYDPCVGEEKNLKVLYQFRGVLHQVMVLDSEALRIPKQSHRIDTDG
B5: translocase of inner membrane 23 (protein, UniProt O14925 1-209)
chain: MEGGGGSGNKTTGGLAGFFGAGGAGYSHADLAGVPLTGMNPLSPYLNVDPRYLVQDTDEFILPTGANKTRGRFELAFFTIGGCCMTGAAFGAMNGLRLGLKETQNMAWSKPRNVQILNMVTRQGALWANTLGSLALLYSAFGVIIEKTRGAEDDLNTVAAGTMTGMLYKCTGGLRGIARGGLTGLTLTSLYALYNNWEHMKGSLLQQSL
B6: Catalase (enzyme, UniProt P04040 1-527)
chain: MADSRDPASDQMQHWKEQRAAQKADVLTTGAGNPVGDKLNVITVGPRGPLLVQDVVFTDEMAHFDRERIPERVVHAKGAGAFGYFEVTHDITKYSKAKVFEHIGKKTPIAVRFSTVAGESGSADTVRDPRGFAVKFYTEDGNWDLVGNNTPIFFIRDPILFPSFIHSQKRNPQTHLKDPDMVWDFWSLRPESLHQVSFLFSDRGIPDGHRHMNGYGSHTFKLVNANGEAVYCKFHYKTDQGIKNLSVEDAARLSQEDPDYGIRDLFNAIATGKYPSWTFYIQVMTFNQAETFPFNPFDLTKVWPHKDYPLIPVGKLVLNRNPVNYFAEVEQIAFDPSNMPPGIEASPDKMLQGRLFAYPDTHRHRLGPNYLHIPVNCPYRARVANYQRDGPMCMQDNQGGAPNYYPNSFGAPEQQPSALEHSIQYSGEVRRFNTANDDNVTQVRAFYVNVLNEEQRKRLCENIAGHLKDAQIFIQKKAVKNFTEVHPDYGSHIQALLDKYNAEKPKNAIHTFVQSGSHLAAREKANL
B7: Histidyl-tRNA Synthetase 2, mitochondrial (enzyme, UniProt P49590 34-506)
chain: QSQVAEAVLTSQLKAHQEKPNFIIKTPKGTRDLSPQHMVVREKILDLVISCFKRHGAKGMDTPAFELKETLTEKYGEDSGLMYDLKDQGGELLSLRYDLTVPFARYLAMNKVKKMKRYHVGKVWRRESPTIVQGRYREFCQCDFDIAGQFDPMIPDAECLKIMCEILSGLQLGDFLIKVNDRRIVDGMFAVCGVPESKFRAICSSIDKLDKMAWKDVRHEMVVKKGLAPEVADRIGDYVQCHGGVSLVEQMFQDPRLSQNKQALEGLGDLKLLFEYLTLFGIADKISFDLSLARGLDYYTGVIYEAVLLQTPTQAGEEPLNVGSVAAGGRYDGLVGMFDPKGHKVPCVGLSIGVERIFYIVEQRMKTKGEKVRTTETQVFVATPQKNFLQERLKLIAELWDSGIKAEMLYKNNPKLLTQLHYCESTGIPLVVIIGEQELKEGVIKIRSVASREEVAIKRENFVAEIQKRLSES
B8: SLC25A20 (protein, UniProt O43772 1-301)
chain: MADQPKPISPLKNLLAGGFGGVCLVFVGHPLDTVKVRLQTQPPSLPGQPPMYSGTFDCFRKTLFREGITGLYRGMAAPIIGVTPMFAVCFFGFGLGKKLQQKHPEDVLSYPQLFAAGMLSGVFTTGIMTPGERIKCLLQIQASSGESKYTGTLDCAKKLYQEFGIRGIYKGTVLTLMRDVPASGMYFMTYEWLKNIFTPEGKRVSELSAPRILVAGGIAGIFNWAVAIPPDVLKSRFQTAPPGKYPNGFRDVLRELIRDEGVTSLYKGFNAVMIRAFPANAACFLGFEVAMKFLNWATPNL
B9: Mitochondrial Fission factor (protein, UniProt Q9GZY8 1-342)
chain: MSKGTSSDTSLGRVSRAAFPSPTAAEMAEISRIQYEMEYTEGISQRMRVPEKLKVAPPNADLEQGFQEGVPNASVIMQVPERIVVAGNNEDVSFSRPADLDLIQSTPFKPLALKTPPRVLTLSERPLDFLDLERPPTTPQNEEIRAVGRLKRERSMSENAVRQNGQLVRNDSLWHRSDSAPRNKISRFQAPISAPEYTVTPSPQQARVCPPHMLPEDGANLSSARGILSLIQSSTRRAYQQILDVLDENRRPVLRGGSAAATSNPHHDNVRYGISNIDTTIEGTSDDLTVVDAASLRRQIIKLNRRLQLLEEENKERAKREMVMYSITVAFWLLNSWLWFRR
B10: Peroxiredoxin 4 (protein, UniProt Q13162 38-271)
chain: WETEERPRTREEECHFYAGGQVYPGEASRVSVADHSLHLSKAKISKPAPYWEGTAVIDGEFKELKLTDYRGKYLVFFFYPLDFTFVCPTEIIAFGDRLEEFRSINTEVVACSVDSQFTHLAWINTPRRQGGLGPIRIPLLSDLTHQISKDYGVYLEDSGHTLRGLFIIDDKGILRQITLNDLPVGRSVDETLRLVQAFQYTDKHGEVCPAGWKPGSETIIPDPAGKLKYFDKLN

Biological target: T1, MIC26-APEX2-Myc (human)
Assay: proximity labelling

binding, binds:
B1
B2
B3
B4
B5

Biological target: T2, MIC27-APEX2-Myc (human)
Assay: proximity labelling

binding, binds:
B1
B6
B3
B4
B7
B5

Biological target: MIC13-APEX2-Myc (human) (UniProt Q5XKP0)
Assay: proximity labelling

binding, binds:
B1
B3
B4
B8
B5

Biological target: MIC10-APEX2-Myc (human) (UniProt Q5TGZ0)
Assay: proximity labelling

binding, binds:
B1
B9
B10
B3
B4

Results are given in words; binding and its absence hold for the method and conditions named. Binding seen in cells or lysates may run through a third protein. These calls come from enrichment with a bait or labelling near it, and not all partners need be listed. For part of these data: Where a sequence is shown, tags or fusion partners need not be part of it.
